In patent publication USRE38132E1, “Phenylpyrrolidines, phenylimidazolidines,3-phenyl-1,3-oxizolidines and 3-phenyl-1,3-thiazolidines and their use in the treatment of inflammatory disease” (Boehringer Ingelheim Pharmaceuticals, Inc., priority 1997, dated 2003):
For some of these results: At least one read-out could not be matched to a standard name with certainty. For some of these results: At least one compound was matched to its structure with a doubt left.

Columns and labels:
[1] = tested on: human MLR, peripheral blood mononuclear cells; test: Inhibition of the mixed lymphocyte reaction (MLR), tritiated thymidine uptake; type: cell-based; design: key: Data are reported as “+” or “−” at a given concentration (in μM); Data are reported as “+” or “−” at a given concentration (in μM)
Description: Assay to Determine Inhibition the Mixed Lymphocyte Reaction
As discussed above, ICAM-1 is necessary for effective cellular interactions during an immune response mediated through LFA-1-dependent cell adhesion. When lymphocytes from two unrelated individuals are cultured together, blast transformation and cell proliferation of the lymphocytes are observed. This response is known as a mixed lymphocyte reaction (MLR) and is analogous to the response of lymphocytes to the 10 addition of antigens or mitogens (Immunology: The Science of Self-Nonself Discrimination; Klein, J., Ed.; John Wiley & Sons: NY, 1982, pp 453-458).
This assay protocol is used to determine the effect of a test compound on the human MLR.
(§1) Description of Assay Protocol:
Peripheral blood is obtained from normal, healthy donors by venipuncture. The blood is collected in heparinized tubes and diluted 1:1 at room temperature with Puck's G (GIBCO) balanced salt solution (BSS). The blood mixture (20 mL) is layered over 15 mL of a Ficoll/Hypaque density gradient (Pharmacia, density=1.078, room temperature) and centrifuged at 1000·g for 20 minutes. The interface is then collected and washed 3 times in Puck's G. The cells are counted on a hemocytometer and resuspended in RPMI 1640 culture medium (GIBCO) containing 0.5% of gentamicin, 1 mM L-glutamine (GICO) and 5% heat inactivated (56° C., 30 min) human AB sera (Flow Laboratories) (hereafter referred to as RPMI-culture medium).
Stimulator cells (cells that have been treated with irradiation so that they are unable to proliferate) from a separate donor are cultured with the responder cells at the same concentration. Test compound is added to wells at various concentrations. The total volume per culture is 0.2 mL. Controls include compound vehicle alone (DMSO), responder cells alone, and stimulator cells alone. The culture plates are incubated at 37° C. in a 5% CO2-humidified air atmosphere for 5 days.
The wells are pulsed with 0.5 μCi of tritiated thymidine (^3HT) (New England Nuclear) for the last 18 h of culture. In some cases a two-way MLR can be performed. The protocol is the same except that the second donor's cells are not inactivated by irradiation.
The cells are harvested onto glass fiber filters using an automated multiple sample harvester (Skatron, Norway), and rinsed with water and methanol. The filters are oven dried and counted in Aquasol in a Beckman (LS-3801) liquid scintillation counter.
Data are reported as “+” or “−” at a given concentration (in μM).

[2] = tested on: cell bound fibronectin receptor (VLA4) with fibronectin, SKW3 cells; test: Inhibition of SKW3 cell binding to fibronectin (selectivity counter-assay); type: cell-based, human; conditions: No inh = no inhibition observed up to highest dose; exact quantification not always possible due to intrinsic toxicity
Excerpt: Assay to Determine Inhibition of SKW3 cell binding to ICAM-1 vs. Binding to Fibronectin
This assay is used to test the selective ability of a test compound to antagonize the interaction of a cell bound form of LFA-1 with ICAM-1. The assay uses a human T cell line, SKW3 cells which express CD18, CD11a and other integrins not related to CD18, CD11a and which can be “activated” by phorbol esters. Phorbol esters enhance the affinity of CD18, CD11a for ICAM-1.
This same lymphocyte line, SKW3, also adheres to fibronectin in the presence of phorbol esters. This adhesion is mediated by membrane proteins independent of the LFA-1/ICAM-1 interaction. The SKW3 cells express another integrin, VLA4, which is the receptor for fibronectin. Therefore, as a preliminary indication of the selectivity of a test compounds to interfere with Leukointegrin/CAM interactions but not other integrin-ligand binding events, a compound can be tested for its ability to antagonize cell bound fibronectin receptor in its interaction with purified fibronectin. Compounds that inhibit this fibronectin adhesion are not specific antagonists of the CD18, CD11a/ICAM-1 binding.
as §1
Ninety-six well plates are coated with either sICAM-1(40 μg/mL) or fibronectin (100 μg/mL) in Diluting buffer for 1 h at room temperature. Added to the wells are 100 μL of the appropriately diluted test compound or 100 μL of RPMI with 15% fetal bovine serum as a control. SKW3 cells, which express CD18, CD11a and VLA4 (Dustin, M.; et al., J. Exp. Med. 1987, 165, 672-692) are washed and suspended to a concentration of 10^6 cells/mL in RPMI with 15% fetal bovine serum. Immediately before adding the cells to the wells, cells are stimulated with the phorbol ester 12-myristate 13-acetate (PMA) for a final concentration of […]. 100 μL of cells are then added to the wells resulting in a final concentration of […]. The plates are incubated for 2 h at 37° C. Unbound or loosely bound cells are gently washed away with RPMI. […]

Row | SMILES | Mixed Lymphocyte Reaction MLR +/− ([1]; at 25-50 μM) | Assay to Detect SKW3 Cells Binding to FIBRONECTIN IC50 [2] | also measured
1 | CCN1C(=O)N(c2cc(Cl)cc(Cl)c2)C(=O)[C@@]1(C)Cc1ccc(Br)cc1 [Example 97] | +(25-50) |  | 
2 | CN1C(=O)N(c2cc(Cl)cc(Cl)c2)C(=O)[C@@]1(C)Cc1ccc(Br)cc1 [Example 271] |  |  | Mixed Lymphocyte Reaction MLR +/− ([1]; at 13-25 μM): +(13-25)
3 | C[C@@]1(Cc2ccc(Br)cc2)C(=O)N(c2cc(Cl)cc(Cl)c2)C(=O)N1CCCCC[N+](C)(C)C [Example 255] |  | No inh^c | 
4 | C[C@@]1(Cc2ccc(Br)cc2)C(=O)N(c2cc(Cl)cc(Cl)c2)C(=O)N1CCCC[N+](C)(C)C [Example 253] |  | No inh^c | 
5 | CN1C(=O)N(c2cc(Cl)cc(Cl)c2)C(=O)C1(C)Cc1ccc(Br)cc1 (stereo not shown) [Example 138] | +(25-50) |  | 
6 | CN1C(=O)N(c2cc(Cl)cc(Cl)c2)C(=O)[C@@]1(C)Cc1ccccc1 [Example 266] | +(25-50) |  | 
7 | C[C@@]1(Cc2ccc(Br)cc2)C(=O)N(c2cc(Cl)cc(Cl)c2)C(=O)N1CCC[N+](C)(C)C [Example 254] |  | No inh^c | 
